The record followed here is publication PMC9679424, “The CARD8 T60 variant associates with NLRP1 and negatively regulates its activation” (Frontiers in Immunology, 2022).

Protein sequences, listed by entry. Tags and fused reporters are not part of them.
UniProt Q9ULZ3: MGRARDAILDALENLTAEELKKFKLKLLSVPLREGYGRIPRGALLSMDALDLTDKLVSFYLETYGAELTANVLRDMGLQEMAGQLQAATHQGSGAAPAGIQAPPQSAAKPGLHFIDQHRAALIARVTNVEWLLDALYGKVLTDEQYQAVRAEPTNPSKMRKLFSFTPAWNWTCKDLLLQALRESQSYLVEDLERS

For one assay, the target named is T1, NLRP1-FLAG (human, UniProt Q9C000-1 1-1473).
T1 construct: NLRP1, human, UniProt Q9C000-1, full length; The host of the purified protein is told only as a mammalian expression system; also called full-length NLRP1; Flag-tagged NLRP1; source: HEK 293T, transiently transfected, in lysate; also purified using mammalian protein expression system
T1 sequence (looked up): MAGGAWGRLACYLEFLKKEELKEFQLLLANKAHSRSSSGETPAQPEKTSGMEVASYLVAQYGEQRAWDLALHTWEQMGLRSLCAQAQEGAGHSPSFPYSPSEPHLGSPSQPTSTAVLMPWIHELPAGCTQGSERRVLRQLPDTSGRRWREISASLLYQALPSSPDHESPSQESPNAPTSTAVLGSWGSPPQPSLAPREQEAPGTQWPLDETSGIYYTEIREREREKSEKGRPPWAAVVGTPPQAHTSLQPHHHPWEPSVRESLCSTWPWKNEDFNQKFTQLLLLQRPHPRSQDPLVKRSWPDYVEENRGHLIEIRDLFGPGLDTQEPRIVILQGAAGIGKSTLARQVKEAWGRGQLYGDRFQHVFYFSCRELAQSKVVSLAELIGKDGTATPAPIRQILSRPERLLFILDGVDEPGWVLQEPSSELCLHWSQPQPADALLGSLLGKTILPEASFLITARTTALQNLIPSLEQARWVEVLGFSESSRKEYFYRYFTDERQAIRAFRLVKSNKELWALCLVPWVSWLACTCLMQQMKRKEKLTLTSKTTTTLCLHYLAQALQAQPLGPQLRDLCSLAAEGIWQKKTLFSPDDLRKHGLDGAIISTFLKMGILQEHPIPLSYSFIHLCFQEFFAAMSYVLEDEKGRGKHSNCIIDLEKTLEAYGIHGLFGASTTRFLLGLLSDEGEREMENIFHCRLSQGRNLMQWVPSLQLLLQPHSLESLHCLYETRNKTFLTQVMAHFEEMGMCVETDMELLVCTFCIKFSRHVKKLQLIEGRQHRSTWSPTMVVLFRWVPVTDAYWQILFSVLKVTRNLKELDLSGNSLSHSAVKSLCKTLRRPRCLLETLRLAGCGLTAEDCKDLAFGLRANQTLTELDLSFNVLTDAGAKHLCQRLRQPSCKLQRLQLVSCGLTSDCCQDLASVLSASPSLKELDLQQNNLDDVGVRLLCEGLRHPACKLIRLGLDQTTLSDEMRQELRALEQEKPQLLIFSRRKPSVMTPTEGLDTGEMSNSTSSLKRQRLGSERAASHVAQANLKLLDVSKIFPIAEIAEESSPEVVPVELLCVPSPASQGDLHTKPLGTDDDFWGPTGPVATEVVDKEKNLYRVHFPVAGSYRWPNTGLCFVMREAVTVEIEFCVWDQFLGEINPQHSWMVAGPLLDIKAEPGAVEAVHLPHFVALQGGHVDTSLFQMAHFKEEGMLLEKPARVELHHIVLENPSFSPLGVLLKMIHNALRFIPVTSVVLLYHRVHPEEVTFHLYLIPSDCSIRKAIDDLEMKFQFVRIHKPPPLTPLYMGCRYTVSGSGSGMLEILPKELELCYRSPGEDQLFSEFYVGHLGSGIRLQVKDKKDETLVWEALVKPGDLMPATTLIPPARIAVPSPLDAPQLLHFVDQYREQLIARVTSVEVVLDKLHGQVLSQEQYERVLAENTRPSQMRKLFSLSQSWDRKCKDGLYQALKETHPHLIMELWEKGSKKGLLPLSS
The assay can be described thus: co-IP; HEK 293T cells transiently co-transfected, 28 hours; lysate (20 mM Tris-HCl pH 7.5, 100 mM KCl, 5 mM MgCl2, 0.3% NP-40) on anti-FLAG M2 agarose beads overnight at 4 °C; immunoblotting.

The target in assay [1] is full-length ASC (pBIND, DNA-binding domain fusion) (UniProt Q9ULZ3). The assay can be described thus: two-hybrid; Checkmate mammalian two-hybrid in HEK 293T cells; UPA-CARD fragments in pACT (VP16 activation domain), ASC in pBIND (DNA-binding domain), pG5luc, 1:1:1; luciferase normalised to Renilla, fold of empty vector, 24 hours.
In assay [2] the target is NLRP1-FLAG truncation mutant: LRR domain (human) (UniProt Q9C000). The assay is described as follows: co-IP; HEK 293T cells transiently co-transfected, 28 hours; lysate (20 mM Tris-HCl pH 7.5, 100 mM KCl, 5 mM MgCl2, 0.3% NP-40) on anti-FLAG M2 agarose beads overnight at 4 °C; immunoblotting.

These are yes or no findings as the source states them, for the method shown. A result given as binding can be weak or reduced; the word gives no strength. For part of these data: Binding seen in cells or lysates may run through a third protein. For part of these data: Where a sequence is shown, tags or fusion partners need not be part of it.

Regarding “CARD8-T60-Strep truncation mutant: ZU5 subdomain (from UniProt Q9Y2G2-5) (domain or fragment)”, the binding result with NLRP1-FLAG is “binds”.
Regarding “NLRP1^UPA-CARD (pACT, VP16 activation domain fusion) (from UniProt Q9C000-1) (domain or fragment)”, the binding result in assay [1] is given as “binds”.

B1: CARD8-T60-Strep (natural protein, human, UniProt Q9Y2G2-5 1-537, looked up)
chain: MEKKECPEKSSSSEEELPRRDSGSSRNIDASKLIRLQGSRKLLVDNSIRELQYTKTGIFFQAEACVTNDTVYRELPCVSETLCDISHFFQEDDETEAEPLLFRAVPECQLSGGDIPSVSEEQESSEGQDSGDICSEENQIVSSYASKVCFEIEEDYKNRQFLGPEGNVDVELIDKSTNRYSVWFPTAGWYLWSATGLGFLVRDEVTVTIAFGSWSQHLALDLQHHEQWLVGGPLFDVTAEPEEAVAEIHLPHFISLQAGEVDVSWFLVAHFKNEGMVLEHPARVEPFYAVLESPSFSLMGILLRIASGTRLSIPITSNTLIYYHPHPEDIKFHLYLVPSDALLTKAIDDEEDRFHGVRLQTSPPMEPLNFGSSYIVSNSANLKVMPKELKLSYRSPGEIQHFSKFYAGQMKEPIQLEITEKRHGTLVWDTEVKPVDLQLVAASAPPPFSGAAFVKENHRQLQARMGDLKGVLDDLQDNEVLTENEKELVEQEKTRQSKNEALLSMVEKKGDLALDVLFRSISERDPYLVSYLRQQNL
notes: CARD8, T60 isoform, human, UniProt Q9Y2G2-5, full length; The host of the purified protein is told only as a mammalian expression system; also called CARD8-Strep; T60 isoform of CARD8; source: HEK 293T, transiently transfected, in lysate; also purified using mammalian protein expression system
Take B1: the binding entry in assay [2] was “binds”.
